T1: TOX conjugated with a GFP tag (thymocyte selection-associated high mobility group box) (UniProt O94900)
T1 sequence: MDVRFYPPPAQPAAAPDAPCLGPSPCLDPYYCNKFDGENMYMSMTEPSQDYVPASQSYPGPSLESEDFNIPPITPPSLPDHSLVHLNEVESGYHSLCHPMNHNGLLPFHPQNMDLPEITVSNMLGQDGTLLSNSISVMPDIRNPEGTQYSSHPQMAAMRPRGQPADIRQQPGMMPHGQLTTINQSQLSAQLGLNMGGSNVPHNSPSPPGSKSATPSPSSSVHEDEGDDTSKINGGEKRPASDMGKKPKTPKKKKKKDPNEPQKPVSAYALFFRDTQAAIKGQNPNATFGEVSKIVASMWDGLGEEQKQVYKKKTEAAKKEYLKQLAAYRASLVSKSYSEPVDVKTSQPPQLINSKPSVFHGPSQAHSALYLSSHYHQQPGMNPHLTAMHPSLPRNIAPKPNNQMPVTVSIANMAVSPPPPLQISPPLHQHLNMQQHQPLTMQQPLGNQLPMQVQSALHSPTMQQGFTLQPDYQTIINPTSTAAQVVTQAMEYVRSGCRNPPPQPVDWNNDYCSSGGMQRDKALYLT

Amino acid sequences for entries named in this document (tags omitted).
UniProt P17096: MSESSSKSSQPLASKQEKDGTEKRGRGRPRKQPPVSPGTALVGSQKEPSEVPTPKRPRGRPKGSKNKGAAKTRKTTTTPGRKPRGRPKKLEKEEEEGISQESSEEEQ
UniProt P19474: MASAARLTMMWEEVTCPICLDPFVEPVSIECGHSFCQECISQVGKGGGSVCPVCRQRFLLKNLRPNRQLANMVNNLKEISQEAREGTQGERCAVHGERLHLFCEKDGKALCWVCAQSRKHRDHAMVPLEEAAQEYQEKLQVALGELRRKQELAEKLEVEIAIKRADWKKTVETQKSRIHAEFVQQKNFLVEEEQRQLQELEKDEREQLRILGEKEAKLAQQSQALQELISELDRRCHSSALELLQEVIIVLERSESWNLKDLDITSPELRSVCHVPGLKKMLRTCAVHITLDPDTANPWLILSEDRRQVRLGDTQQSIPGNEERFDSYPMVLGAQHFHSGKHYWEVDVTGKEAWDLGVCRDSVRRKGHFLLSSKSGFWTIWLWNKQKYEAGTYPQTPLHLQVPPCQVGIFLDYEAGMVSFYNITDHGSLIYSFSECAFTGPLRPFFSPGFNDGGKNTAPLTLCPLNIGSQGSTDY

B1: FLOT2 (protein, UniProt Q14254 1-428)
chain: MGNCHTVGPNEALVVSGGCCGSDYKQYVFGGWAWAWWCISDTQRISLEIMTLQPRCEDVETAEGVALTVTGVAQVKIMTEKELLAVACEQFLGKNVQDIKNVVLQTLEGHLRSILGTLTVEQIYQDRDQFAKLVREVAAPDVGRMGIEILSFTIKDVYDKVDYLSSLGKTQTAVVQRDADIGVAEAERDAGIREAECKKEMLDVKFMADTKIADSKRAFELQKSAFSEEVNIKTAEAQLAYELQGAREQQKIRQEEIEIEVVQRKKQIAVEAQEILRTDKELIATVRRPAEAEAHRIQQIAEGEKVKQVLLAQAEAEKIRKIGEAEAAVIEAMGKAEAERMKLKAEAYQKYGDAAKMALVLEALPQIAAKIAAPLTKVDEIVVLSGDNSKVTSEVNRLLAELPASVHALTGVDLSKIPLIKKATGVQV
B2: FLOT1 (protein, UniProt O75955 1-427)
chain: MFFTCGPNEAMVVSGFCRSPPVMVAGGRVFVLPCIQQIQRISLNTLTLNVKSEKVYTRHGVPISVTGIAQVKIQGQNKEMLAAACQMFLGKTEAEIAHIALETLEGHQRAIMAHMTVEEIYKDRQKFSEQVFKVASSDLVNMGISVVSYTLKDIHDDQDYLHSLGKARTAQVQKDARIGEAEAKRDAGIREAKAKQEKVSAQYLSEIEMAKAQRDYELKKAAYDIEVNTRRAQADLAYQLQVAKTKQQIEEQRVQVQVVERAQQVAVQEQEIARREKELEARVRKPAEAERYKLERLAEAEKSQLIMQAEAEAASVRMRGEAEAFAIGARARAEAEQMAKKAEAFQLYQEAAQLDMLLEKLPQVAEEISGPLTSANKITLVSSGSGTMGAAKVTGEVLDILTRLPESVERLTGVSISQVNHKPLRTA
B3: KCTD10 (protein, UniProt Q9H3F6 1-313)
chain: MEEMSGESVVSSAVPAAATRTTSFKGTSPSSKYVKLNVGGALYYTTMQTLTKQDTMLKAMFSGRMEVLTDSEGWILIDRCGKHFGTILNYLRDGAVPLPESRREIEELLAEAKYYLVQGLVEECQAALQNKDTYEPFCKVPVITSSKEEQKLIATSNKPAVKLLYNRSNNKYSYTSNSDDNMLKNIELFDKLSLRFNGRVLFIKDVIGDEICCWSFYGQGRKIAEVCCTSIVYATEKKQTKVEFPEARIYEETLNILLYEAQDGRGPDNALLEATGGAAGRSHHLDEDEERERIERVRRIHIKRPDDRAHLHQ

The record followed here is publication PMC12035900.

Results are given in words; binding and its absence hold for the method and conditions named. In cells and extracts the contact can be indirect. Some entries that bind do so weakly or less than the wild type. Sequences can lack the tags named with a protein.

This experiment concerns the target T1, TOX conjugated with a GFP tag (thymocyte selection-associated high mobility group box). Kind of experiment: co-IP; 1 mg lysate protein (1X RIPA with protease inhibitors) incubated with anti-GFP antibody or IgG control at 4 °C overnight, magnetic beads, low-pH elution, Western blot; also done on cells treated with or without MG132. (In general: A western blot detects proteins with antibodies after separation by electrophoresis.)
With “High Mobility Group A1 (HMGA1) (from UniProt P17096 1-107)”, the binding entry is reported as “binds”.

Consider TRIM21 (from UniProt P19474 1-475), for which the binding entry was “binds”.

As to B1, the binding result is reported as “binds”.

Regarding B2, the binding entry is given as “binds”.

As to B3, the binding result is listed as “binds”.
